Experiment: Reduction of Na2S: total sulfur and sulfate after addition of oxidizer, Series 7
Conditions: 100 ml DI water with ~5 mg sodium sulfide; several days after addition of oxidizer

## O=N[O-].[Na+] [Test A, NaNO2]
  % SO4 formed: 0%

## N.NC(=O)O [Test B, ammonium carbamate]
  % SO4 formed: 45.63%
